{
  "sequences": {"note": "Amino acid sequences for entries named in this document (tags omitted). Residues count along the entry.", "UniProt Q9UGN5, 77-220": "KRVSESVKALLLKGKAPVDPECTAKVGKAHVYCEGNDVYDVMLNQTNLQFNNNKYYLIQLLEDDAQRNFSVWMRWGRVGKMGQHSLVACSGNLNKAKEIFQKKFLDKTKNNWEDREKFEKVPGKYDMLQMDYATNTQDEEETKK"},
  "source": "paper PMC12209172",
  "about": "“Poly(ADP-ribose)polymerase 2 is zinc-dependent enzyme and nucleosome reorganizer” (Cellular and Molecular Life Sciences: CMLS, 2025)",
  "biological_target": "T1, WGR domain of PARP2 (Homo sapiens, UniProt Q9UGN5)",
  "T1 construct": "WGR domain of PARP2 (residues 77–220) into pET-15b-TEV expression vector; 6xHis (pET-15b-TEV) (N, cleaved yes); made in house; host or cells: Escherichia coli Rosetta2 (DE3) pLysS",
  "assay": "Tryptophan fluorescence spectroscopy of the WGR domain titrated with divalent cations (one site binding fit)",
  "conditions": "listed as Zn",
  "protocol": "Fluorescence spectra of Trp residues were measured in the 300–450 nm spectral range at the 270 nm excitation wavelengths using the Cary Eclipse spectrofluorometer (Varian/Agilent, USA).\nFluorescence of WGR domain was measured at 0.5 or 5 µM in a buffer containing 10 mM HEPES (pH 8.0), 150 mM NaCl and 0.73 or 7.3 µM EDTA, respectively. Solutions were complemented with ZnCl2 (0.2–308 µM) or MgCl2 (15–5000 µM), or CaCl2 (8–5000 µM) dissolved in a buffer containing 10 mM HEPES (pH 8.0), 150 mM NaCl. Intensity of the measured spectra was corrected for the concomitant dilution of the WGR domain. Integral intensities (Ifl.) of fluorescence spectra were averaged over three independent measurements (mean ± SEM) and used to plot the corresponding Ifl. vs. ion concentration graphs. Data were fitted with the one site binding equation:2 [drawing 2]\nWhere C is the concentration of divalent cations, Kd is a dissociation constant of the complex, Im and Ifl0 are maximal and initial values of Ifl., respectively.",
  "note": "Several values for one entry are separate records, joined by “and”; a condition that tells them apart may be missing. Equal entries are not always repeated. This continues a long series; more values of the same kind are listed elsewhere.",
  "data": [
    {"smiles": "[Cl-].[Cl-].[Zn+2]", "note": "[Zn2+, ZnCl2]", "values": [
      {"measurement": "fluorescence intensity (Fig 3d)", "setting": "wavelength 364.000, 5.9 uM Zn", "result": "55.842 and 63.694 and 78.194 and 61.247"},
      {"measurement": "fluorescence intensity (Fig 3d)", "setting": "wavelength 364.000, 11.6 uM Zn", "result": "106.791 and 92.289 and 92.670 and 97.945"},
      {"measurement": "fluorescence intensity (Fig 3d)", "setting": "wavelength 364.000, 17.2 uM", "result": "113.092 and 103.179 and 104.413 and 102.691"},
      {"measurement": "fluorescence intensity (Fig 3d)", "setting": "wavelength 364.000, 22.1 uM", "result": "113.488 and 104.841 and 105.132 and 105.276"},
      {"measurement": "fluorescence intensity (Fig 3d)", "setting": "wavelength 364.000, 303 uM + 7 mM EDTA", "result": "37.492 and 46.461 and 37.501 and 45.070"},
      {"measurement": "fluorescence intensity (Fig 3d)", "setting": "wavelength 364.000, 308 uM", "result": "112.175 and 106.509 and 106.375 and 103.893"},
      {"measurement": "fluorescence intensity (Fig 3d)", "setting": "wavelength 365.070, 5.9 uM Zn", "result": "54.955 and 61.338 and 74.965 and 59.497"},
      {"measurement": "fluorescence intensity (Fig 3d)", "setting": "wavelength 365.070, 11.6 uM Zn", "result": "104.136 and 89.456 and 89.683 and 95.341"},
      {"measurement": "fluorescence intensity (Fig 3d)", "setting": "wavelength 365.070, 17.2 uM", "result": "110.307 and 100.251 and 101.917 and 100.027"},
      {"measurement": "fluorescence intensity (Fig 3d)", "setting": "wavelength 365.070, 22.1 uM", "result": "110.796 and 102.299 and 101.756 and 101.715"},
      {"measurement": "fluorescence intensity (Fig 3d)", "setting": "wavelength 365.070, 303 uM + 7 mM EDTA", "result": "35.110 and 45.130 and 35.661 and 44.035"},
      {"measurement": "fluorescence intensity (Fig 3d)", "setting": "wavelength 365.070, 308 uM", "result": "108.197 and 103.928 and 103.206 and 100.909"},
      {"measurement": "fluorescence intensity (Fig 3d)", "setting": "wavelength 366.000, 5.9 uM Zn", "result": "53.867 and 59.723 and 72.971 and 57.784"},
      {"measurement": "fluorescence intensity (Fig 3d)", "setting": "wavelength 366.000, 11.6 uM Zn", "result": "100.645 and 88.354 and 88.422 and 93.471"},
      {"measurement": "fluorescence intensity (Fig 3d)", "setting": "wavelength 366.000, 17.2 uM", "result": "107.019 and 98.799 and 99.204 and 97.652"},
      {"measurement": "fluorescence intensity (Fig 3d)", "setting": "wavelength 366.000, 22.1 uM", "result": "108.704 and 99.404 and 99.865 and 99.157"},
      {"measurement": "fluorescence intensity (Fig 3d)", "setting": "wavelength 366.000, 303 uM + 7 mM EDTA", "result": "34.807 and 43.986 and 34.907 and 42.375"},
      {"measurement": "fluorescence intensity (Fig 3d)", "setting": "wavelength 366.000, 308 uM", "result": "106.012 and 100.547 and 101.530 and 98.114"},
      {"measurement": "fluorescence intensity (Fig 3d)", "setting": "wavelength 367.070, 5.9 uM Zn", "result": "51.819 and 58.334 and 71.068 and 56.021"},
      {"measurement": "fluorescence intensity (Fig 3d)", "setting": "wavelength 367.070, 11.6 uM Zn", "result": "98.706 and 86.060 and 85.557 and 90.394"},
      {"measurement": "fluorescence intensity (Fig 3d)", "setting": "wavelength 367.070, 17.2 uM", "result": "103.457 and 95.096 and 97.047 and 94.565"},
      {"measurement": "fluorescence intensity (Fig 3d)", "setting": "wavelength 367.070, 22.1 uM", "result": "105.216 and 96.039 and 95.703 and 97.201"},
      {"measurement": "fluorescence intensity (Fig 3d)", "setting": "wavelength 367.070, 303 uM + 7 mM EDTA", "result": "34.256 and 42.714 and 33.429 and 41.689"},
      {"measurement": "fluorescence intensity (Fig 3d)", "setting": "wavelength 367.070, 308 uM", "result": "103.828 and 97.312 and 98.484 and 95.045"},
      {"measurement": "fluorescence intensity (Fig 3d)", "setting": "wavelength 368.000, 5.9 uM Zn", "result": "50.092 and 56.980 and 71.200 and 54.944"},
      {"measurement": "fluorescence intensity (Fig 3d)", "setting": "wavelength 368.000, 11.6 uM Zn", "result": "96.231 and 82.386 and 83.993 and 88.873"},
      {"measurement": "fluorescence intensity (Fig 3d)", "setting": "wavelength 368.000, 17.2 uM", "result": "102.342 and 94.195 and 94.248 and 92.711"},
      {"measurement": "fluorescence intensity (Fig 3d)", "setting": "wavelength 368.000, 22.1 uM", "result": "102.414 and 93.814 and 94.938 and 94.421"},
      {"measurement": "fluorescence intensity (Fig 3d)", "setting": "wavelength 368.000, 303 uM + 7 mM EDTA", "result": "32.566 and 42.293 and 33.042 and 40.042"},
      {"measurement": "fluorescence intensity (Fig 3d)", "setting": "wavelength 368.000, 308 uM", "result": "100.281 and 95.437 and 95.362 and 92.778"},
      {"measurement": "fluorescence intensity (Fig 3d)", "setting": "wavelength 369.070, 5.9 uM Zn", "result": "48.767 and 55.886 and 67.800 and 53.758"},
      {"measurement": "fluorescence intensity (Fig 3d)", "setting": "wavelength 369.070, 11.6 uM Zn", "result": "93.083 and 80.678 and 82.299 and 85.537"},
      {"measurement": "fluorescence intensity (Fig 3d)", "setting": "wavelength 369.070, 17.2 uM", "result": "99.189 and 90.714 and 91.053 and 90.436"},
      {"measurement": "fluorescence intensity (Fig 3d)", "setting": "wavelength 369.070, 22.1 uM", "result": "99.480 and 91.901 and 93.083 and 90.900"},
      {"measurement": "fluorescence intensity (Fig 3d)", "setting": "wavelength 369.070, 303 uM + 7 mM EDTA", "result": "31.700 and 41.718 and 31.989 and 39.210"},
      {"measurement": "fluorescence intensity (Fig 3d)", "setting": "wavelength 369.070, 308 uM", "result": "97.301 and 92.373 and 92.594 and 89.888"},
      {"measurement": "fluorescence intensity (Fig 3d)", "setting": "wavelength 370.000, 5.9 uM Zn", "result": "46.922 and 53.760 and 66.161 and 52.466"},
      {"measurement": "fluorescence intensity (Fig 3d)", "setting": "wavelength 370.000, 11.6 uM Zn", "result": "91.566 and 79.258 and 79.137 and 83.009"},
      {"measurement": "fluorescence intensity (Fig 3d)", "setting": "wavelength 370.000, 17.2 uM", "result": "96.600 and 88.899 and 88.857 and 87.705"},
      {"measurement": "fluorescence intensity (Fig 3d)", "setting": "wavelength 370.000, 22.1 uM", "result": "97.647 and 88.923 and 88.573 and 88.536"},
      {"measurement": "fluorescence intensity (Fig 3d)", "setting": "wavelength 370.000, 303 uM + 7 mM EDTA", "result": "30.437 and 39.805 and 31.516 and 38.807"},
      {"measurement": "fluorescence intensity (Fig 3d)", "setting": "wavelength 370.000, 308 uM", "result": "96.317 and 89.871 and 92.012 and 87.630"},
      {"measurement": "fluorescence intensity (Fig 3d)", "setting": "wavelength 371.070, 5.9 uM Zn", "result": "45.256 and 52.757 and 65.250 and 50.197"},
      {"measurement": "fluorescence intensity (Fig 3d)", "setting": "wavelength 371.070, 11.6 uM Zn", "result": "88.286 and 76.342 and 75.960 and 80.391"},
      {"measurement": "fluorescence intensity (Fig 3d)", "setting": "wavelength 371.070, 17.2 uM", "result": "93.673 and 85.234 and 86.388 and 85.321"},
      {"measurement": "fluorescence intensity (Fig 3d)", "setting": "wavelength 371.070, 22.1 uM", "result": "95.176 and 86.175 and 87.095 and 85.438"},
      {"measurement": "fluorescence intensity (Fig 3d)", "setting": "wavelength 371.070, 303 uM + 7 mM EDTA", "result": "29.985 and 38.466 and 29.835 and 36.743"},
      {"measurement": "fluorescence intensity (Fig 3d)", "setting": "wavelength 371.070, 308 uM", "result": "92.274 and 89.144 and 87.788 and 85.404"},
      {"measurement": "fluorescence intensity (Fig 3d)", "setting": "wavelength 372.000, 5.9 uM Zn", "result": "44.852 and 50.838 and 62.814 and 48.698"},
      {"measurement": "fluorescence intensity (Fig 3d)", "setting": "wavelength 372.000, 11.6 uM Zn", "result": "85.541 and 74.150 and 73.759 and 79.157"},
      {"measurement": "fluorescence intensity (Fig 3d)", "setting": "wavelength 372.000, 17.2 uM", "result": "90.804 and 82.897 and 84.869 and 82.380"},
      {"measurement": "fluorescence intensity (Fig 3d)", "setting": "wavelength 372.000, 22.1 uM", "result": "91.352 and 83.179 and 84.544 and 83.448"},
      {"measurement": "fluorescence intensity (Fig 3d)", "setting": "wavelength 372.000, 303 uM + 7 mM EDTA", "result": "29.272 and 37.546 and 29.414 and 36.653"},
      {"measurement": "fluorescence intensity (Fig 3d)", "setting": "wavelength 372.000, 308 uM", "result": "89.765 and 84.579 and 85.290 and 83.672"},
      {"measurement": "fluorescence intensity (Fig 3d)", "setting": "wavelength 373.070, 5.9 uM Zn", "result": "43.799 and 48.947 and 60.381 and 47.376"},
      {"measurement": "fluorescence intensity (Fig 3d)", "setting": "wavelength 373.070, 11.6 uM Zn", "result": "83.369 and 71.298 and 72.330 and 76.425"},
      {"measurement": "fluorescence intensity (Fig 3d)", "setting": "wavelength 373.070, 17.2 uM", "result": "87.109 and 81.029 and 80.298 and 81.359"},
      {"measurement": "fluorescence intensity (Fig 3d)", "setting": "wavelength 373.070, 22.1 uM", "result": "88.862 and 81.045 and 81.804 and 81.257"},
      {"measurement": "fluorescence intensity (Fig 3d)", "setting": "wavelength 373.070, 303 uM + 7 mM EDTA", "result": "28.015 and 35.858 and 28.555 and 34.992"},
      {"measurement": "fluorescence intensity (Fig 3d)", "setting": "wavelength 373.070, 308 uM", "result": "86.658 and 82.391 and 83.361 and 80.810"}
    ]}
  ]
}
